# PubChem BioAssay AID624297 (National Center for Advancing Translational Sciences (NCATS), 2012)
# Screen size: about 340,000 compounds; about 6,200 (1.8%) were called active. This list was built around the results that the source calls inconclusive (neither active nor inactive); the mix of calls is not that of the screen. The call rests on the fitted dose curve; in most records, active means well fitted activation curve with a large enough effect; inconclusive means small, poorly fitted or top-dose-only effect; inactive means no such curve, though single readings can be large or run the other way. Where the call is inconclusive, the potency comes from a doubtful curve fit.
# Test: A quantitative high throughput screen for small molecules that induce DNA re-replication in SW480 colon adenocarcinoma cells. Further: nearly all actives have a fitted effect of over 55% in size. On re-replication activation: % of control where 0% means no effect.
# Details: Hoechst DNA content imaging, 48 h; re-replication activation: at 46.1 µM (top of the series) unless noted
# Procedure, shortened: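 Quantitative HTS format with DMSO vehicle controls; 48 hr drug incubation at 37 C, then 40 min Hoechst staining and scanning imager measurement at 405 nm excitation.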
# Potency means the concentration at half of the fitted maximal effect.
SMILES,Potency,re-replication activation
CCn1cc(C(=O)O)c(=O)c2cc(F)c(N3CCN(C(=S)NC(=O)c4ccccc4)CC3)cc21,"inconclusive: 2.91 µM [activator, single point]",
CC(C)CCN1C(=O)c2ccc(-c3nc4ccccc4c(=O)o3)cc2C1=O,inactive,
CCCCC(=O)OCC(=O)N1N=C(c2c[nH]c3ccccc23)C(O)C1c1ccc(OC)cc1 (centres undefined),"inconclusive: 20.6 µM [activator, single point]",
Cc1ccc(-n2c(SCC(=O)NCCC3=CCCCC3)nc3n[nH]c(C)c3c2=N)cc1Cl,"inconclusive: 23.1 µM [activator, single point]",
O=C(O)C1CCC(NSc2ccccc2[N+](=O)[O-])CC1 (centres undefined),"inconclusive: 29.1 µM [activator, single point]",
COc1ccccc1-c1cc(C(=O)NCCc2ccccc2)no1,"inconclusive: 29.1 µM [activator, single point]",
COc1ccc(C(=O)CC(=O)C(=O)Nc2c(C)cccc2C)cc1,"inconclusive: 20.6 µM [activator, single point]",
O=C(CN1C(=O)NC2(CCCC2)C1=O)OCCOc1cccc(Br)c1,"inconclusive: 0.231 µM [activator, full curve, poor fit]",
COc1ccc(-c2cc(C)no2)cc1S(=O)(=O)Nc1cccc(CN2CCCC2)c1,"inconclusive: 1.16 µM [activator, partial curve, poor fit]",
CC(Nc1nc(-c2ccc(F)cc2)cs1)c1nc2cc(Cl)c(Cl)cc2n1CCOCCO (centres undefined),"inconclusive: 29.1 µM [activator, single point]",
COc1ccccc1C(=O)COC(=O)C1(C)CC1(Cl)Cl (centres undefined),inactive,
O=c1[nH]c(C2CCN(S(=O)(=O)c3ccc(C(F)(F)F)cc3)CC2)nc2c1nnn2Cc1ccc(F)cc1,"inconclusive: 20.6 µM [activator, single point]",
Cc1ccc(NC(=O)COc2ccc(S(=O)(=O)N3CCOCC3)cc2)cc1,"inconclusive: 0.0651 µM [activator, full curve, poor fit]",
Cc1nc2ccccc2c(=O)n1NC(=O)c1ccc(Cl)c(Cl)c1,inactive,
ClC(/C=N/n1cnnc1)=C/c1ccccc1,"inconclusive: 29.1 µM [activator, single point]",
Cn1c(=O)n(C)c2cc(NC(=O)c3cc4ccccc4o3)ccc21,inactive,
Cc1cccc(NC(=O)CSc2nc3ccccc3c3nc(CCc4c(C)n[nH]c4C)nn23)c1,"inconclusive: 20.6 µM [activator, single point]",
Cc1ccc2ccc3cccc4ccc1c2c34,"inconclusive: 0.0052 µM [activator, full curve, poor fit]",
COC(=O)c1sc(C(C)(C)C)cc1CSc1ccccc1,inactive,
Cc1cc2nn(-c3ccc(F)cc3)nc2cc1N,active: 20.6 µM,
O=C(Nc1cccc(/C=C/c2nc3ccccc3c(=O)[nH]2)c1)c1ccccc1Cl,"inconclusive: 25.9 µM [activator, single point]",
CC(C)(C)c1ccc(C2=CSC3=NCCN23)cc1,"inconclusive: 29.1 µM [activator, single point]",

SMILES,Potency,re-replication activation
O=C(NNC(=O)c1sc2cccc(Cl)c2c1Cl)NC1CCCCC1,inactive,
CCOc1ccccc1NC(=O)c1ccccc1NC(=O)c1ccco1,"inconclusive: 23.1 µM [activator, single point]",
Cc1ccc(NC(=O)c2ccccc2F)nc1,"inconclusive: 0.0116 µM [activator, full curve, poor fit]",
CC(C)n1c(CNC(=O)c2ccccc2)nc2ccccc21,inactive,
O=C(O)CCC(=O)NNc1nc2ccccc2nc1-c1ccccc1,"inconclusive: 16.4 µM [activator, partial curve, poor fit]",
O=C(c1c[nH]c(C(=O)N2CCN(c3ccccc3F)CC2)c1)c1cccc(Cl)c1Cl,"inconclusive: 5.8 µM [activator, single point]",
C#CCOCCOCCOCCNc1nc(N2CCOCC2)nc(N2CCN(C(=O)[C@H](CCCCN)n3cc([C@@H](N)CC(C)C)nn3)CC2)n1,"inconclusive: 0.0651 µM [activator, full curve, poor fit]",
COc1cccc(CNC23CC4CC(CC(C4)C2)C3)c1OCc1ccccc1,"inconclusive: 29.1 µM [activator, single point]",
Cc1ccc(NC(=S)Nc2ccc3nc(-c4ccccn4)c(-c4ccccn4)nc3c2)cc1C,"inconclusive: 3.66 µM [activator, full curve]",
COc1ccc(CN=C2NN=C(c3ccccc3)CS2)cc1,"inconclusive: 29.1 µM [activator, single point]",
CC1CCc2cc(F)ccc2N1C(=O)CCl (centres undefined),"inconclusive: 18.4 µM [activator, single point]",
COc1ccc(O)c(/C=N/Nc2nc(Nc3ccccc3)nc(-n3nc(C)cc3C)n2)c1,"inconclusive: 11.6 µM [activator, partial curve, poor fit]",
O=C(OCCn1c(=S)sc2ccccc21)c1ccccc1,"inconclusive: 29.1 µM [activator, single point]",
COc1ccccc1N1CCN(C(=O)c2ccc(-c3ccc(Cl)cc3)o2)CC1,"inconclusive: 6.51 µM [activator, full curve]",
O=C(NC(NC(=S)Nc1ccc(Cl)cc1)C(Cl)(Cl)Cl)c1ccco1 (centres undefined),"inconclusive: 29.1 µM [activator, single point]",
N#Cc1cc2c(=O)n3ccccc3nc2n(CCCN2CCOCC2)c1=O,"inconclusive: 1.84 µM [activator, partial curve]",
CCOCCCNCc1cc(Br)ccc1OCc1ccccc1,inactive,
CCOC(=O)/C(=C\c1ccc(Cl)cc1)c1nc2sc(C)c(C)c2c(=O)[nH]1,"inconclusive: 29.1 µM [activator, single point]",
O=C(CNC(=O)c1ccc(Cl)cc1Cl)OCN1C(=O)c2ccccc2C1=O,"inconclusive: 5.8 µM [activator, full curve, poor fit]",
CCOC(=O)Nc1cc(=O)c2ccccc2o1,"inconclusive: 8.2 µM [activator, single point]",
CC1=NNC(=O)C1CCC(=O)N/N=C/c1ccc(C)cc1 (centres undefined),"inconclusive: 32.6 µM [activator, single point]",
CCOc1cc(CNCc2ccccc2)ccc1OCC(=O)NC1CCCCC1,"inconclusive: 20.6 µM [activator, partial curve, poor fit]",

SMILES,Potency,re-replication activation
CSc1ncc(Cl)c(C(=O)Nc2nnc(SC)s2)n1,inactive,
Cc1ccc(S(=O)(=O)Nc2cccc(-c3ccc4nnc(C)n4n3)c2)s1,inactive,
CCCc1nc2sc3c(c2c(=O)n1NC(=O)CCCl)CCCC3,"inconclusive: 29.1 µM [activator, partial curve, poor fit]",
O=C(Cc1ccc(S(=O)(=O)N2CCOCC2)s1)Nc1cc(C(F)(F)F)cc(C(F)(F)F)c1,"inconclusive: 29.1 µM [activator, single point]",
CCOc1ccc(OCC(=O)Nc2ccccc2N2CCCC2)cc1,"inconclusive: 29.1 µM [activator, single point]",
CCN(CC)CCSc1nnc2c3ccccc3n(Cc3ccccc3)c2n1,"inconclusive: 29.1 µM [activator, single point]",
CC1CCCN(Cc2ccc(OCc3ccccc3)cc2)C1 (centres undefined),"inconclusive: 0.164 µM [activator, full curve, poor fit]",
O=C(NCc1c(Cl)cccc1Cl)c1ccc2nnsc2c1,"inconclusive: 20.6 µM [activator, partial curve, poor fit]",
CC12CCC(=O)N1C(C(=O)OCC(=O)Nc1cccc(Br)c1)CS2 (centres undefined),"inconclusive: 1.16 µM [activator, single point]",
C[C@@H]1COC(=O)[C@H](Cc2ccc(F)cc2)C/C=C\C[C@@H](CC(=O)N[C@H](CO)Cc2ccccc2)C(=O)N1,inactive,
COc1ccccc1-c1sc2cc3c(cc2c1-c1ccc2c(c1)OCO2)OCO3,"inconclusive: 20.6 µM [activator, partial curve, poor fit]",
C=C(C)COc1ccc(-c2nc(N)nc(C(F)(F)F)c2-c2ccc(OC)cc2)c(O)c1,active: 20.6 µM,
C[C@@H]1CN([C@@H](C)CO)C(=O)Cc2cc(NC(=O)Nc3ccc(F)cc3)ccc2O[C@@H]1CN(C)Cc1ccc(Cl)c(Cl)c1,inactive,
CCc1ccc(Oc2coc3cc(OCC(=O)Nc4cc(C)ccc4C)ccc3c2=O)cc1,"inconclusive: 29.1 µM [activator, single point]",
CCc1ccc(NC(=O)[C@H](NC(=O)[C@@H]2Cc3ccccc3CN2)c2ccccc2)cc1,"inconclusive: 29.1 µM [activator, single point]",
Cc1c(NC(=O)C(C)OC(=O)c2ncc(Cl)c(Cl)c2Cl)c(=O)n(-c2ccccc2)n1C (centres undefined),inactive,
Cc1nc2scc(-c3ccccc3)c2c(=O)n1N=C1C=CC(=O)C=C1,"inconclusive: 2.91 µM [activator, full curve]",
O=C(O)c1ccc(N2C(=O)/C(=C\c3ccccc3)N=C2c2ccccc2)cc1,"inconclusive: 16.4 µM [activator, single point]",
O=C(Nc1cccc(Cl)c1)c1ccc(NCCCN2CCOCC2)c([N+](=O)[O-])c1,,inactive: -0.646% [at 9.22 µM]
CC(C)COc1ccc(C(=O)OCCN2CCOCC2)c(O)c1,"inconclusive: 18.4 µM [activator, partial curve, poor fit]",

# Ordered by heavy-atom count (smallest number first): some entries from above
SMILES,Potency,re-replication activation
Cc1nc2scc(-c3ccccc3)c2c(=O)n1N=C1C=CC(=O)C=C1,"inconclusive: 2.91 µM [activator, full curve]",
CCc1ccc(Oc2coc3cc(OCC(=O)Nc4cc(C)ccc4C)ccc3c2=O)cc1,"inconclusive: 29.1 µM [activator, single point]",
C[C@@H]1COC(=O)[C@H](Cc2ccc(F)cc2)C/C=C\C[C@@H](CC(=O)N[C@H](CO)Cc2ccccc2)C(=O)N1,inactive,
